Data: the supplement of paper PMC10849652
Some of the results follow.

Protein sequences, listed by entry. Tags and fused reporters are not part of them. Lines headed by an entry give the natural chain unless they say otherwise; changes in a name come on top.
UniProt P0DPB6, whole entry, looked up: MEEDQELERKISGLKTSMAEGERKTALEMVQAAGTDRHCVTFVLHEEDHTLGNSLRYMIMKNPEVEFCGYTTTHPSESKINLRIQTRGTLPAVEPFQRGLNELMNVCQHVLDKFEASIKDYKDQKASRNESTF
UniProt Q9BT43: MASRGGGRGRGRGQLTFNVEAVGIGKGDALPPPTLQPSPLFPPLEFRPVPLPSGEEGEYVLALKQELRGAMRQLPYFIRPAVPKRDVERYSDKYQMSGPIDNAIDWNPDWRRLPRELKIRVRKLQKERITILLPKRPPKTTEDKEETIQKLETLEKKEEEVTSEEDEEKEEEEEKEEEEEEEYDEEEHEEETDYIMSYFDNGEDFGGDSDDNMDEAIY
UniProt P29590: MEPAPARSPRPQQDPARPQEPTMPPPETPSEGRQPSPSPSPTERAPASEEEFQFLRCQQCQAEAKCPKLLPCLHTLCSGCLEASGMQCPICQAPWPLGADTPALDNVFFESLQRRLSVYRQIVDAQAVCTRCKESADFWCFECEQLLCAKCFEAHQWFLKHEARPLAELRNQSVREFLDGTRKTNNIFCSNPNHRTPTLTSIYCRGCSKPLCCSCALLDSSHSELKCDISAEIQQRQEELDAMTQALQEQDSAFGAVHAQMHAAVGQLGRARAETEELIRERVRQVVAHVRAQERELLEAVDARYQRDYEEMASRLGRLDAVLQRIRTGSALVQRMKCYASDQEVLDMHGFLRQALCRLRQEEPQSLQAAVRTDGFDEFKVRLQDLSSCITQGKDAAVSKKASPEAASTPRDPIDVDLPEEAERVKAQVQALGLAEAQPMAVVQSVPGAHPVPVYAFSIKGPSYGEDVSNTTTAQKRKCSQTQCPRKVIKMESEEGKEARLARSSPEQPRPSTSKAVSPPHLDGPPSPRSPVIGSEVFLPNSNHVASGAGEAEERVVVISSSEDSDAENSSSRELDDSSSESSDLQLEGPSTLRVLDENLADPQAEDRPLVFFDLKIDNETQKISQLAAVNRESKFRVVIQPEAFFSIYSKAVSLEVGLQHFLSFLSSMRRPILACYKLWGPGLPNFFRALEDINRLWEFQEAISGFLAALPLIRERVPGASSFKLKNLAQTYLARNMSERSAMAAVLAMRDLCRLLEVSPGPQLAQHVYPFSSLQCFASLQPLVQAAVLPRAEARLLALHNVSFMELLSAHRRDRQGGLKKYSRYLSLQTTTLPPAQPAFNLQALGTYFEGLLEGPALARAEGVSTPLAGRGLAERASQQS
UniProt O75334: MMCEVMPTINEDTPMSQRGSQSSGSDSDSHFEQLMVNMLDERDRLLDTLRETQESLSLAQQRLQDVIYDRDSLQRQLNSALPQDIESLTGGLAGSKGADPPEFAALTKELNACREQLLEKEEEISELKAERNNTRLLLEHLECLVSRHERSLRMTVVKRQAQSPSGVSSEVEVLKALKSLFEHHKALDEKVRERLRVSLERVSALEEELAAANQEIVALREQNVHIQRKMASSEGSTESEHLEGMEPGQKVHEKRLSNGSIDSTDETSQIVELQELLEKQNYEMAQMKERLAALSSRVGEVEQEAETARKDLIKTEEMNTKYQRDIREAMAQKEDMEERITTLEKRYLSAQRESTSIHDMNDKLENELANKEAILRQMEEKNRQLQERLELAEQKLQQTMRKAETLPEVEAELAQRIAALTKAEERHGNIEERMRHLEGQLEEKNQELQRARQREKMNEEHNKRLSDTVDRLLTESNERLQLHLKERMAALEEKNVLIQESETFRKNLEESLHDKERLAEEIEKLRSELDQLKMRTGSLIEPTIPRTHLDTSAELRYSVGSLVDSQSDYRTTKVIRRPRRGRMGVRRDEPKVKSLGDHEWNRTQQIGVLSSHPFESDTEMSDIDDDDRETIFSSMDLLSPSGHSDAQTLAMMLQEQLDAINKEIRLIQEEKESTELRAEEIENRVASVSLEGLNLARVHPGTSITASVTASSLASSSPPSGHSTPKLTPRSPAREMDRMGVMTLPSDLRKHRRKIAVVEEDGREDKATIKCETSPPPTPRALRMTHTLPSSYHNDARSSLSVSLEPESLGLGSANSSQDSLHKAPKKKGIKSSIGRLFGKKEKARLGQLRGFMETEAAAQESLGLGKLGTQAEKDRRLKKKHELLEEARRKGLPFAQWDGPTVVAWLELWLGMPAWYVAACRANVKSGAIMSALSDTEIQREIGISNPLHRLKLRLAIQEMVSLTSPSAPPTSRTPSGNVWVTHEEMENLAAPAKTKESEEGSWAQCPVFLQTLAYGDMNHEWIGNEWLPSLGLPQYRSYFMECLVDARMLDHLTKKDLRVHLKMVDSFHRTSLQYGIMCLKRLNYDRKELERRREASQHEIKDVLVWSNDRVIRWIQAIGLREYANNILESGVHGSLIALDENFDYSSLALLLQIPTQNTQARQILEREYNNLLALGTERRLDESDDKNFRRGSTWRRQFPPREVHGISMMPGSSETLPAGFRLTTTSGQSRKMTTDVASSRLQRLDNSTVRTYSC
UniProt Q15054: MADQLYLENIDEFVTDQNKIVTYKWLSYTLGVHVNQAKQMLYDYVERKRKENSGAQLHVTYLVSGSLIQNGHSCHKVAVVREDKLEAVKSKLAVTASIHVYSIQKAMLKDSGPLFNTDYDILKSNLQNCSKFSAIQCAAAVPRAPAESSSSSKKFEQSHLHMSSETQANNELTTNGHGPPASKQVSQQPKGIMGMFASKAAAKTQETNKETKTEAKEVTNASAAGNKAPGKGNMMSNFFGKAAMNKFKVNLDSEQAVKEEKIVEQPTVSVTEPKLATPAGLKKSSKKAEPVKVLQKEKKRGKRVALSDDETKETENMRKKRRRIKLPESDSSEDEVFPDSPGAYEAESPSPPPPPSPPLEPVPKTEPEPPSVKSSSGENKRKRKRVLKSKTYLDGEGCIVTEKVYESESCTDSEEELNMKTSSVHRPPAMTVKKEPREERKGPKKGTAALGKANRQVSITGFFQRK
UniProt Q9Y2S7: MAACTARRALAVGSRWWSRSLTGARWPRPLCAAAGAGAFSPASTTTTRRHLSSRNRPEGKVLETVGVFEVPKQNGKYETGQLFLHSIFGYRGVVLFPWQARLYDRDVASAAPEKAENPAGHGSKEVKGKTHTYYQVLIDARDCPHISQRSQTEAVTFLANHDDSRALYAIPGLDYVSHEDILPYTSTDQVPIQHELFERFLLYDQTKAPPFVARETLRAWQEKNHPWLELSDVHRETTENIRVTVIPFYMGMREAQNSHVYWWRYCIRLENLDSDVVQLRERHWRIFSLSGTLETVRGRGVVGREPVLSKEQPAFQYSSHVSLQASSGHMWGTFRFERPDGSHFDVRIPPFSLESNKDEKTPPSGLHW
UniProt P16435: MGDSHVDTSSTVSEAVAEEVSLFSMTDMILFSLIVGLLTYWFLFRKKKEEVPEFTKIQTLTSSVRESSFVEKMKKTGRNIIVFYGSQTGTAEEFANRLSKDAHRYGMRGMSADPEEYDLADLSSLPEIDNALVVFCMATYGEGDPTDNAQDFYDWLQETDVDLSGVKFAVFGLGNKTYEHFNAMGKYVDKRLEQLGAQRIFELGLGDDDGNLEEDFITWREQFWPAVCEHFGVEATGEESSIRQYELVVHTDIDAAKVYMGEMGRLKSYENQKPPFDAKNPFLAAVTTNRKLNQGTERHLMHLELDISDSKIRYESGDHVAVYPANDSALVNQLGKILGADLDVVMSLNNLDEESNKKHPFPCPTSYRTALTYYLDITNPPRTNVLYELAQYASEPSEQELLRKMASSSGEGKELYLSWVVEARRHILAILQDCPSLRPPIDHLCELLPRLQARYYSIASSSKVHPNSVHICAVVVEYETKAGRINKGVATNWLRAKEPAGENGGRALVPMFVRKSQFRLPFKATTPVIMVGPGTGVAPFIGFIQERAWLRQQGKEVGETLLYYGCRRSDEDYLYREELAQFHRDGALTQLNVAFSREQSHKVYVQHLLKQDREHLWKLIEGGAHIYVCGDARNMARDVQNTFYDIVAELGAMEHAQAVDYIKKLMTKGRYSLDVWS
UniProt O14802: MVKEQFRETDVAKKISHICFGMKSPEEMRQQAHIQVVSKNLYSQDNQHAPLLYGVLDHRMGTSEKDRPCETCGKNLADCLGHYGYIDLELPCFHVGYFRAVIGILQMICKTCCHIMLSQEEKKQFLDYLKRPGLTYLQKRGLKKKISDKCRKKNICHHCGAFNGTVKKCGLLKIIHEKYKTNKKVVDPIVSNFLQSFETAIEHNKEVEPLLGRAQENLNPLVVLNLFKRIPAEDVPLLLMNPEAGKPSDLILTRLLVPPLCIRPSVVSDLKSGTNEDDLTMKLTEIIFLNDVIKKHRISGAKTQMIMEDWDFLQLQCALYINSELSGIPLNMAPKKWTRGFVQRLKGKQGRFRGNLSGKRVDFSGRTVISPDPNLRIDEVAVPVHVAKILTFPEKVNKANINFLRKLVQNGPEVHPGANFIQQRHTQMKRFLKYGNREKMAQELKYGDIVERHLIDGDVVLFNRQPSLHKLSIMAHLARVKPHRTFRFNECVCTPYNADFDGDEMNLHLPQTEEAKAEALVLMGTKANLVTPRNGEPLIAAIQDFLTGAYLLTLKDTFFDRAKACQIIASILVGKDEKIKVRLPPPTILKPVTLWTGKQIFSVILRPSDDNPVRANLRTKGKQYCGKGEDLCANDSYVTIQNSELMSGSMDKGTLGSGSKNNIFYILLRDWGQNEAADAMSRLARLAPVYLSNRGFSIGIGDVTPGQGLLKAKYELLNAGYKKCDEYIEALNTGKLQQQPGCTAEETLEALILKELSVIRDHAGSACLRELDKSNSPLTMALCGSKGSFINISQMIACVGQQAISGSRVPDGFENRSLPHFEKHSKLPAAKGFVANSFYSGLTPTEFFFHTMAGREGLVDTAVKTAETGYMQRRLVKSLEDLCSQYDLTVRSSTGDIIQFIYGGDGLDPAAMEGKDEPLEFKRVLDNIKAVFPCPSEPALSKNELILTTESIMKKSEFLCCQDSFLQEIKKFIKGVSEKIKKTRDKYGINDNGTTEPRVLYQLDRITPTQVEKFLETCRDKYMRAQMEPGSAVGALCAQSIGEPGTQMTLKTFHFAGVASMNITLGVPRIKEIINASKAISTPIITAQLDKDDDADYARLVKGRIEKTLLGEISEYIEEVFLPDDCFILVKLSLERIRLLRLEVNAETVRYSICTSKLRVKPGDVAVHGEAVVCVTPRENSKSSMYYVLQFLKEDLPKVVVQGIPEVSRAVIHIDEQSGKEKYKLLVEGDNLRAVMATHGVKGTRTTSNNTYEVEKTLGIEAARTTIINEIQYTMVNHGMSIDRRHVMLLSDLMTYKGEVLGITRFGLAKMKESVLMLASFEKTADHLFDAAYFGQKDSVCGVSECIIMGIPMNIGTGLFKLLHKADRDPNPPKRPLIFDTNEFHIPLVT
UniProt Q9Y2G5: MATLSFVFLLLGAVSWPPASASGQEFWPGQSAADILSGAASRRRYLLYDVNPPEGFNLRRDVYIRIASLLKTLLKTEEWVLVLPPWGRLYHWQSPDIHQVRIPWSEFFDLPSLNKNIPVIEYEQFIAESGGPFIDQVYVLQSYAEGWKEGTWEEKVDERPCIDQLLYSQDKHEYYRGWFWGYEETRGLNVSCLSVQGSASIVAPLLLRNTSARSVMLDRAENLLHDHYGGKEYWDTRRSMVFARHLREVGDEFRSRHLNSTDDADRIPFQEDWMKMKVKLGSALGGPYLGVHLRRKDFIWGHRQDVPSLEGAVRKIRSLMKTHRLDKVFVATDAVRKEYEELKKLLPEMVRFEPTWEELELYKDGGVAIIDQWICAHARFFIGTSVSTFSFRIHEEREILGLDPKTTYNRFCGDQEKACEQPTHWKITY
UniProt Q8NAT1: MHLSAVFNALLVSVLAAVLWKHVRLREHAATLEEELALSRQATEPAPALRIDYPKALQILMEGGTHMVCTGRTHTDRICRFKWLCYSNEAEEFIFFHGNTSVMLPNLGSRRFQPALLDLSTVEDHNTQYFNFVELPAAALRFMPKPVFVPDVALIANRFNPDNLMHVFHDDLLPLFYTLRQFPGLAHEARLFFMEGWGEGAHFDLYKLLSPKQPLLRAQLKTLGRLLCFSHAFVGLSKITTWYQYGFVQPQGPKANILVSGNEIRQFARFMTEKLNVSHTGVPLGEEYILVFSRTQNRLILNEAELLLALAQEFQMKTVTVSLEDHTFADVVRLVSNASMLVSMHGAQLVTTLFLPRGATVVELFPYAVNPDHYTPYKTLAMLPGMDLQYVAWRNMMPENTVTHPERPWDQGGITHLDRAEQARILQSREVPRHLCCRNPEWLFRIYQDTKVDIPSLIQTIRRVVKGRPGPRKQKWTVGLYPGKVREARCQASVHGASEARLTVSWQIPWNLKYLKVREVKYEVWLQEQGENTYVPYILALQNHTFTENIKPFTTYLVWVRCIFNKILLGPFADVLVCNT
UniProt Q15126: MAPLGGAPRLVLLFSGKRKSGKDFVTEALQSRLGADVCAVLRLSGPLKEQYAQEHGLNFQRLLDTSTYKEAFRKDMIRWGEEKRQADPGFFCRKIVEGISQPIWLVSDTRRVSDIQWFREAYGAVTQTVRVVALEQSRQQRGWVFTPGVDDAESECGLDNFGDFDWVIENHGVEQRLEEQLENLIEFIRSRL

Tests used:
Assay in all cases: log2 fold change, soluble protein after heating vs DMSO (PISA); higher = thermal stabilisation; K562 lysate, 10 uM; active = over 0.2 and 3.5 SD of the protein, either way, in both replicates (recomputed)
alvocidib = compound: CN1CC[C@H](c2c(O)cc(O)c3c(=O)cc(-c4ccccc4Cl)oc23)[C@H](O)C1 [alvocidib]
Summary of the method: (§1)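 Quantification was by TMTpro 16plex LC-MS/MS with equalised channel sums, applied to the supernatant after 21,000xg for 90 min. Samples were crude K562 extract at 1 mg/mL protein in PBS pH 7.4 with 1 mM MgCl2, treated with 10 μM compound for 30 min, heated for 3 min across 48°C-58°C, pooled and brought to 0.5% NP-40 at 4°C. Values are log-two fold changes in thermal stability relative to solvent controls, from duplicates.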

Tubastatin A = compound: CN1CCc2c(c3ccccc3n2Cc2ccc(C(=O)NO)cc2)C1 [Tubastatin A]
Summary of the method: as §1

[1] = compound: CNC(=O)C1=CC=CC=C1NC2=NC(=NC=C2Cl)NC3=C(C=C(C=C3)N4CCOCC4)OC
Summary of the method: as §1

defactinib = compound: CNC(=O)c1ccc(Nc2ncc(C(F)(F)F)c(NCc3nccnc3N(C)S(C)(=O)=O)n2)cc1 [defactinib]
Summary of the method: as §1

[2] = compound: CNc1nc(-c2ccc3c(N)n[nH]c3c2)cc(N2C[C@@H](C(=O)NC3CCCCC3)CC[C@H]2C)n1
Summary of the method: as §1

encorafenib = compound: COC(=O)N[C@@H](C)CNc1nccc(-c2cn(C(C)C)nc2-c2cc(Cl)cc(NS(C)(=O)=O)c2F)n1 [encorafenib]
Summary of the method: as §1

[3] = compound: COC(=O)[C@H](CCSC)NC(=O)C1=C(C=C(C=C1)NC[C@H](CS)N)C2=CC=CC=C2
Summary of the method: as §1

alisertib = compound: COc1cc(Nc2ncc3c(n2)-c2ccc(Cl)cc2C(c2c(F)cccc2OC)=NC3)ccc1C(=O)O [alisertib]
Summary of the method: as §1

[4] = compound: COc1cc2nc(-c3cc(F)ccc3O)nc(N[C@@H]3CNC[C@H]3C(C)(C)O)c2cc1OC
Summary of the method: as §1

gefitinib = compound: COc1cc2ncnc(Nc3ccc(F)c(Cl)c3)c2cc1OCCCN1CCOCC1 [gefitinib]
Summary of the method: as §1

Measured: log2 fold change

PPIE (UniProt Q9UNP9)
inactive: alvocidib -0.131 | Tubastatin A 0.025 | [1] -0.047 | defactinib -0.018 | [2] 0.023 | encorafenib -0.025 | [3] -0.041 | alisertib -0.036 | [4] 0.005 | gefitinib 0.034

PPIA (UniProt P62937)
inactive: alvocidib 0.011 | Tubastatin A 0.013 | [1] -0.021 | defactinib -0.012 | [2] -0.008 | encorafenib -0.017 | [3] -0.053 | alisertib 0.012 | [4] -0.022 | gefitinib -0.005

POLR1D (UniProt P0DPB6)
inactive: alvocidib -0.016 | Tubastatin A -0.071 | [1] -0.018 | defactinib 0.013 | [2] 0.042 | encorafenib 0.01 | [3] 0.075 | alisertib -0.034 | [4] -0.026 | gefitinib -0.037

POC5 (UniProt Q8NA72)
inactive: alvocidib -0.048 | Tubastatin A -0.046 | [1] 0.054 | defactinib 0.154 | [2] 0.06 | encorafenib 0 | [3] -0.048 | alisertib -0.018 | [4] -0.009 | gefitinib 0.042

PNPLA8 (UniProt Q9NP80)
inactive: alvocidib -0.041 | Tubastatin A -0.231 | [1] -0.093 | defactinib -0.078 | [2] -0.011 | encorafenib 0.013 | [3] -0.072 | alisertib -0.007 | [4] -0.033 | gefitinib -0.012

POGLUT3 (UniProt Q7Z4H8)
inactive: alvocidib -0.006 | Tubastatin A 0.023 | [1] 0.023 | defactinib 0.008 | [2] -0.074 | encorafenib 0.015 | [3] 0.034 | alisertib 0.01 | [4] 0.011 | gefitinib 0.013

POLR2C (UniProt P19387)
inactive: alvocidib -0.032 | Tubastatin A -0.086 | [1] 0.021 | defactinib 0.015 | [2] -0.031 | encorafenib 0.049 | [3] 0.066 | alisertib -0.061 | [4] 0.013 | gefitinib 0.003

POLR2L (UniProt P62875)
inactive: alvocidib 0.014 | Tubastatin A -0.024 | [1] 0.065 | defactinib 0.065 | [2] 0.001 | encorafenib -0.179 | [3] 0.152 | alisertib -0.003 | [4] 0.004 | gefitinib -0.1

POLA1 (UniProt P09884)
inactive: alvocidib -0.01 | Tubastatin A -0.031 | [1] 0.037 | defactinib 0.016 | [2] -0.004 | encorafenib 0.022 | [3] 0.061 | alisertib -0.013 | [4] 0.014 | gefitinib 0.008

POLR3GL (UniProt Q9BT43)
inactive: alvocidib 0.074 | Tubastatin A 0.092 | [1] 0.106 | defactinib -0.023 | [2] 0.15 | encorafenib 0.016 | [3] 0.002 | alisertib -0.018 | [4] 0.035 | gefitinib -0.141

PML (UniProt P29590)
inactive: alvocidib -0.039 | Tubastatin A -0.003 | [1] 0.024 | defactinib -0.036 | [2] 0.033 | encorafenib 0.008 | [3] -0.071 | alisertib 0.011 | [4] 0.014 | gefitinib 0.034

POLB (UniProt P06746)
inactive: alvocidib 0.023 | Tubastatin A -0.199 | [1] -0.062 | defactinib 0.028 | [2] -0.033 | encorafenib 0.045 | [3] 0.086 | alisertib 0.015 | [4] 0 | gefitinib 0.038

PPFIA2 (UniProt O75334)
inactive: alvocidib -0.107 | Tubastatin A 0.021 | [1] 0.022 | defactinib -0.011 | [2] -0.026 | encorafenib -0.082 | [3] -0.029 | alisertib -0.007 | [4] 0.012 | gefitinib 0.057

PPID (UniProt Q08752)
inactive: alvocidib 0.04 | Tubastatin A -0.038 | [1] 0.022 | defactinib -0.006 | [2] -0.024 | encorafenib -0.016 | [3] 0.118 | alisertib -0.003 | [4] -0.007 | gefitinib -0.01

POLD3 (UniProt Q15054)
inactive: alvocidib 0.041 | Tubastatin A -0.032 | [1] 0.099 | defactinib -0.033 | [2] -0.03 | encorafenib 0.021 | [3] 0.048 | alisertib -0.025 | [4] 0.007 | gefitinib -0.018

POLDIP2 (UniProt Q9Y2S7)
inactive: alvocidib 0.018 | Tubastatin A -0.044 | [1] -0.055 | defactinib -0.015 | [2] -0.05 | encorafenib 0.009 | [3] -0.06 | alisertib -0.056 | [4] -0.007 | gefitinib 0.012

POLRMT (UniProt O00411)
inactive: alvocidib 0.025 | Tubastatin A -0.13 | [1] 0.002 | defactinib -0.045 | [2] -0.037 | encorafenib 0.069 | [3] 0.203 | alisertib -0.054 | [4] 0 | gefitinib -0.038

POR (UniProt P16435)
inactive: alvocidib -0.031 | Tubastatin A 0.071 | [1] -0.01 | defactinib 0.013 | [2] 0.015 | encorafenib 0.017 | [3] -0.011 | alisertib 0.017 | [4] 0.031 | gefitinib -0.006

POMGNT1 isoform 2 (UniProt Q8WZA1)
inactive: alvocidib -0.012 | Tubastatin A -0.061 | [1] 0.043 | defactinib -0.157 | [2] 0.163 | encorafenib -0.072 | [3] -0.031 | alisertib 0.051 | [4] -0.005 | gefitinib 0.048

POLG2 (UniProt Q9UHN1)
inactive: alvocidib 0 | Tubastatin A 0.025 | [1] 0.025 | defactinib 0.012 | [2] 0.058 | encorafenib 0.013 | [3] -0.062 | alisertib -0.033 | [4] 0.021 | gefitinib -0.099

POLR2H (UniProt P52434)
inactive: alvocidib -0.04 | Tubastatin A 0.032 | [1] -0.021 | defactinib -0.037 | [2] 0.014 | encorafenib -0.028 | [3] 0.009 | alisertib -0.001 | [4] 0.016 | gefitinib 0.041

PLOD3 (UniProt O60568)
inactive: alvocidib -0.011 | Tubastatin A 0.001 | [1] 0.005 | defactinib 0.006 | [2] -0.132 | encorafenib 0.062 | [3] -0.009 | alisertib 0.01 | [4] 0.008 | gefitinib -0.004

POLR3B (UniProt Q9NW08)
inactive: alvocidib 0.019 | Tubastatin A -0.047 | [1] 0.017 | defactinib -0.006 | [2] 0.038 | encorafenib 0.025 | [3] 0.016 | alisertib -0.015 | [4] 0 | gefitinib -0.004

POLR3A (UniProt O14802)
inactive: alvocidib -0.049 | Tubastatin A -0.037 | [1] 0.012 | defactinib -0.01 | [2] -0.011 | encorafenib 0.023 | [3] 0.036 | alisertib -0.02 | [4] -0.008 | gefitinib -0.029

POFUT2 (UniProt Q9Y2G5)
inactive: alvocidib -0.006 | Tubastatin A -0.121 | [1] 0.069 | defactinib 0.025 | [2] 0.033 | encorafenib -0.02 | [3] 0.043 | alisertib -0.001 | [4] 0.021 | gefitinib 0.003

PNKP (UniProt Q96T60)
inactive: alvocidib -0.06 | Tubastatin A -0.04 | [1] 0.007 | defactinib 0.068 | [2] 0.05 | encorafenib -0.008 | [3] 0.131 | alisertib 0.023 | [4] 0.054 | gefitinib 0.048

POLR3H (UniProt Q9Y535)
inactive: alvocidib -0.084 | Tubastatin A -0.051 | [1] -0.093 | defactinib -0.052 | [2] -0.066 | encorafenib -0.013 | [3] -0.027 | alisertib -0.244 | [4] 0.038 | gefitinib -0.117

Pulled one by one from the list above, two records:
PNKP (UniProt Q96T60)
inactive: alvocidib -0.06 | Tubastatin A -0.04 | [1] 0.007 | defactinib 0.068 | [2] 0.05 | encorafenib -0.008 | [3] 0.131 | alisertib 0.023 | [4] 0.054 | gefitinib 0.048

POLR3B (UniProt Q9NW08)
inactive: alvocidib 0.019 | Tubastatin A -0.047 | [1] 0.017 | defactinib -0.006 | [2] 0.038 | encorafenib 0.025 | [3] 0.016 | alisertib -0.015 | [4] 0 | gefitinib -0.004

Following part

POMP (UniProt Q9Y244)
inactive: alvocidib 0.072 | Tubastatin A -0.061 | [1] 0.035 | defactinib 0.024 | [2] -0.03 | encorafenib 0.074 | [3] -0.002 | alisertib -0.013 | [4] -0.033 | gefitinib -0.093

POMGNT2 (UniProt Q8NAT1)
inactive: alvocidib 0.031 | Tubastatin A 0.081 | [1] -0.002 | defactinib 0.109 | [2] 0.017 | encorafenib -0.157 | [3] 0.211 | alisertib -0.1 | [4] 0.034 | gefitinib 0.072

PMVK (UniProt Q15126)
inactive: alvocidib -0.03 | Tubastatin A -0.087 | [1] -0.003 | defactinib -0.051 | [2] -0.108 | encorafenib 0.001 | [3] -0.07 | alisertib 0.018 | [4] -0.019 | gefitinib -0.003
